{"source": "paper doi:10.1101/2025.10.18.683246", "about": "(bioRxiv, 2025)", "key": {"[1]": {"target": "Clca1 of mouse colonic mucus (mouse (endogenous in colonic mucus)) (UniProt Q9D7Z6)", "experiment": "negative-stain electron microscopy"}, "[2]": {"target": "CLCA1 truncated after amino acid 868 (CLCA1-868) (human) (UniProt A8K7I4)", "experiment": "SEC"}, "[3]": {"target": "CLCA1 truncated after amino acid 868 (CLCA1-868) (human) (UniProt A8K7I4)", "experiment": "negative-stain electron microscopy"}, "[4]": {"target": "C-terminal cleavage product (CTP) of CLCA1-868 (human) (UniProt A8K7I4)", "experiment": "SDS-PAGE with or without DTT and Western blot"}}, "note": "These are yes or no findings as the source states them, for the method shown. Some results given as binding are weak or reduced against the parent protein; the word gives no strength."}
{"binder": "Clca1 of mouse colonic mucus (protein, UniProt Q9D7Z6 22-913) ESLIQLNNNGYEGIVIAIDHDVPEDEALIQHIKDMVTQASPYLFEATGKRFYFKNVAILIPESWKAKPEYTRPKLETFKNADVLVSTTSPLGNDEPYTEHIGACGEKGIRIHLTPDFLAGKKLTQYGPQDRTFVHEWAHFRWGVFNEYNNDEKFYLSKGKPQAVRCSAAITGKNQVRRCQGGSCITNGKCVIDRVTGLYKDNCVFVPDPHQNEKASIMFNQNINSVVEFCTEKNHNQEAPNDQNQRCNLRSTWEVIQESEDFKQTTPMTAQPPAPTFSLLQIGQRIVCLVLDKSGSMLNDDRLNRMNQASRLFLLQTVEQGSWVGMVTFDSAAYVQSELKQLNSGADRDLLIKHLPTVSAGGTSICSGLRTAFTVIKKKYPTDGSEIVLLTDGEDNTISSCFDLVKQSGAIIHTVALGPAAAKELEQLSKMTGGLQTYSSDQVQNNGLVDAFAALSSGNAAIAQHSIQLESRGVNLQNNQWMNGSVIVDSSVGKDTLFLITWTTHPPTIFIWDPSGVEQNGFILDTTTKVAYLQVPGTAKVGFWKYSIQASSQTLTLTVTSRAASATLPPITVTPVVNKNTGKFPSPVTVYASIRQGASPILRASVTALIESVNGKTVTLELLDNGAGADATKNDGVYSRFFTAFDANGRYSVKIWALGGVTSDRQRAAPPKNRAMYIDGWIEDGEVRMNPPRPETSYVQDKQLCFSRTSSGGSFVATNVPAAAPIPDLFPPCQITDLKASIQGQNLVNLTWTAPGDDYDHGRASNYIIRMSTSIVDLRDHFNTSLQVNTTGLIPKEASSEEIFEFELGGNTFGNGTDIFIAIQAVDKSNLKSEISNIARVSVFIPAQEPPIPEDSTPPCPDISINSTIPGIHVLKIMWKWLGEMQVTLGLH", "values": [{"measurement": "binding", "setting": "[1]", "result": "binds"}]}
{"binder": "CLCA1 truncated after amino acid 868 (CLCA1-868) (domain or fragment, UniProt A8K7I4 22-694; A8K7I4 695-868) chain 1: NSLIQLNNNGYEGIVVAIDPNVPEDETLIQQIKDMVTQASLYLLEATGKRFYFKNVAILIPETWKTKADYVRPKLETYKNADVLVAESTPPGNDEPYTEQMGNCGEKGERIHLTPDFIAGKKLAEYGPQGRAFVHEWAHLRWGVFDEYNNDEKFYLSNGRIQAVRCSAGITGTNVVKKCQGGSCYTKRCTFNKVTGLYEKGCEFVLQSRQTEKASIMFAQHVDSIVEFCTEQNHNKEAPNKQNQKCNLRSTWEVIRDSEDFKKTTPMTTQPPNPTFSLLQIGQRIVCLVLDKSGSMATGNRLNRLNQAGQLFLLQTVELGSWVGMVTFDSAAHVQNELIQINSGSDRDTLAKRLPAAASGGTSICSGLRSAFTVIRKKYPTDGSEIVLLTDGEDNTISGCFNEVKQSGAIIHTVALGPSAAQELEELSKMTGGLQTYASDQVQNNGLIDAFGALSSGNGAVSQRSIQLESKGLTLQNSQWMNGTVIVDSTVGKDTLFLITWTMQPPQILLWDPSGQKQGGFVVDKNTKMAYLQIPGIAKVGTWKYSLQASSQTLTLTVTSRASNATLPPITVTSKTNKDTSKFPSPLVVYANIRQGASPILRASVTALIESVNGKTVTLELLDNGAGADATKDDGVYSRYFTTYDTNGRYSVKVRALGGVNAARRRVIPQQSG chain 2: ALYIPGWIENDEIQWNPPRPEINKDDVQHKQVCFSRTSSGGSFVASDVPNAPIPDLFPPGQITDLKAEIHGGSLINLTWTAPGDDYDHGTAHKYIIRISTSILDLRDKFNESLQVNTTALIPKEANSEEVFLFKPENITFENGTDLFIAIQAVDKVDLKSEISNIARVSLFIPP", "values": [{"measurement": "binding", "setting": "[2]", "result": "no binding"}, {"measurement": "binding", "setting": "[3]", "result": "no binding (tested: 20 µM)"}]}
{"binder": "C-terminal cleavage product (CTP) of CLCA1-868 (domain or fragment, UniProt A8K7I4 695-868) ALYIPGWIENDEIQWNPPRPEINKDDVQHKQVCFSRTSSGGSFVASDVPNAPIPDLFPPGQITDLKAEIHGGSLINLTWTAPGDDYDHGTAHKYIIRISTSILDLRDKFNESLQVNTTALIPKEANSEEVFLFKPENITFENGTDLFIAIQAVDKVDLKSEISNIARVSLFIPP", "values": [{"measurement": "binding", "setting": "[4]", "result": "no binding"}]}
